# Measurements as given in patent publication US6627772B2, “Preparation of N-[2-(carboxymethoxy) ethyl]-N-(carboxymethyl) glycine” (The Dow Chemical Company, priority 1999, dated 2003).
# Tested on: standardized sludge containing municipal waste treatment plant organisms
# Experiment: ASTM D2667 semi-continuous activated sludge biodegradability test (loss of chelation followed by copper titration)
# Details: copper titration value, analysis daily
smiles,measurement,value
"O=C(O)CN(CCN(CC(=O)O)CC(=O)O)CC(=O)O [EDTA (std.), ethylenediaminetetraacetate, reference compound]",Time for greater than 80% loss of chelation,greater than 40 days
